# Test results published in PubChem BioAssay AID652054 (National Center for Advancing Translational Sciences (NCATS), 2013).
# Sequences of proteins named here, by UniProt entry; tags and fusion partners are left off.
# UniProt P35462, whole entry, looked up: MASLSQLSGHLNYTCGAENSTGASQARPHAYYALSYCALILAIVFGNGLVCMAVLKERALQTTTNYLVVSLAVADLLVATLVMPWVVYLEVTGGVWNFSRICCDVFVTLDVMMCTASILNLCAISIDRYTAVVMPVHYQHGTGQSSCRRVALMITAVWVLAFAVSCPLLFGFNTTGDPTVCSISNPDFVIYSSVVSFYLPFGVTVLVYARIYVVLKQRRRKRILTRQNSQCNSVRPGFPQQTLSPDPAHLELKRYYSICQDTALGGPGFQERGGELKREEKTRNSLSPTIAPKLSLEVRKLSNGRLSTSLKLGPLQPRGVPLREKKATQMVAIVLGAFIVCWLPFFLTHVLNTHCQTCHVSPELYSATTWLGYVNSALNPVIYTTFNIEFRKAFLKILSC
# Among all 360,000 compounds or so, about 9,100 (2.5%) were called active. This list was built around the results that the source calls inconclusive (neither active nor inactive); the mix of calls is not that of the screen. Rule as the data show it: active = max response below about -50%; inconclusive = no clear call, values can overlap the other calls; inactive = above that. More than one record can exist for a structure, and the calls need not agree.
# Target: D(3) dopamine receptor (Homo sapiens) (UniProt P35462)
# Test: qHTS of D3 Dopamine Receptor Antagonist: qHTS
# Conditions: D3R cells, DiscoveRx beta-arrestin luminescence, antagonist mode; active compounds read low
# In short: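 Cells expressing the human receptor were seeded at 1500 cells/well, incubated overnight at 37 degrees C in 5% CO2, then exposed to library compounds with dopamine controls for 90 minutes at 37 degrees C before luminescent detection.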
# % is scaled to controls: 0 for no effect and ±100 for the full control effect.
row,Compound,"max response, negative = inhibition"
1,O=C(CN1C(=O)c2ccccc2C1=O)NCC(=O)OCC(=O)c1ccc(Cl)cc1,inactive: -5.05%
2,O=C(COC(=O)C12CC3CC(CC(C3)C1)C2)NC12CC3CC(CC(C3)C1)C2,inconclusive: -30.4%
3,CC(=O)N1N=C(c2ccc(C)cc2)CC1c1ccco1 (stereo not drawn),inactive: 4.88%
4,CCC(=O)N1CCN(c2ccc(NC(=O)c3ccc([N+](=O)[O-])o3)cc2Cl)CC1,inconclusive: -36.6%
5,O=C(NC(c1ccccc1)c1ccc2ccccc2n1)C1CCN(Cc2ccc(Oc3ccccc3)cc2)CC1 (stereo not drawn),inconclusive: -46.8%
6,CN(c1ccccc1)P(=O)(N(C)c1ccccc1)N(C)c1ccccc1,inconclusive: -31.1%
7,COc1ccc2c(C)cc(N3CCCCCC3)nc2c1,inconclusive: -32.2%
8,O=C(CC1N=C(Cc2ccccc2)NNC1=O)N/N=C/c1ccc([N+](=O)[O-])cc1 (stereo not drawn),inactive: 7.01%
9,CC1CCCCN1C(=O)c1cccc(NC2=C(Cl)C(=O)N(Cc3ccccc3)C2=O)c1 (stereo not drawn),inactive: -2.07%
10,Nc1ccccc1N=Nc1ccccc1N,inconclusive: -48.5%
11,CN(CCc1ccccc1)C(=O)c1ccc(NC(=O)Cc2cccc([N+](=O)[O-])c2)cc1,inconclusive: -35%
12,CCOC(=O)C1=CCN(S(=O)(=O)c2cccc(Cl)c2)C1c1ccc(F)cc1 (stereo not drawn),inconclusive: -44.3%
13,COc1ccc(C(=O)NCC(=O)OCC(=O)NCc2cccs2)cc1,inconclusive: -30.8%
14,O=C(Cn1nnc(-c2ccc(CN3CCOCC3)cc2)n1)N1CCCc2ccccc21,inconclusive: -45%
15,COc1ccc(CN(C)C(=O)c2ccc(OCC(=O)N3CCOCC3)c(OC)c2)cc1,inconclusive: -30.8%
16,O=C(CC(=O)Nc1ccccc1)Nc1ccccc1,inconclusive: -30.8%
17,OC(COc1ccc(Br)cc1)CN1CCN(c2ccccc2)CC1 (stereo not drawn),active: -51.5%
18,COc1ccc(-c2cc(C(=O)N(C)Cc3ccccc3)no2)cc1OC,inconclusive: -31.8%
19,O=C(/C=C/c1cccs1)NCc1ccc2c(c1)OCO2,inactive: -9.29%
20,COc1ccc(-n2c(C)cc(C(=O)CCl)c2C)cc1,inconclusive: -31.8%
21,O=C(CSc1nnc(NC(=O)c2c(F)cccc2F)s1)NCc1ccccc1,inconclusive: -31.6%
22,O=C(CSc1nc2ccccc2[nH]1)NCc1ccco1,inconclusive: -33.3%

row,Compound,"max response, negative = inhibition"
1,CC(C)NCCCCOc1cccc(Br)c1,inconclusive: -40%
2,CC(=O)Nc1ccc(NC(=O)C(C)OC(=O)C2CCC2)cc1 (stereo not drawn),inconclusive: -35.3%
3,Cc1ccc2oc(/N=C(\N)NC(=O)C3CC3)nc2c1,inactive: -10.1%
4,CCc1ccc(CCC(=O)Nc2sc3c(c2C#N)CCCC3)o1,inconclusive: -46.2%
5,CC(=O)N(C(C)=O)N1C(=O)/C(=C/c2ccc(Cl)cc2)SC1=S,inconclusive: -30.9%
6,CCC(C)(C)n1nnnc1C(c1ccc(N(C)C)cc1)N1CCN(C2CCCCC2)CC1 (stereo not drawn),inconclusive: -31.7%
7,CCSc1nc2c(c(=O)[nH]c(=O)n2C)n1CC(O)COc1ccccc1C (stereo not drawn),inactive: 30.2%
8,CCCC(=O)c1cc2cc(Cl)ccc2oc1=O,inactive: 18.6%
9,Cc1nn(-c2ccccc2)c2c1C(c1c(C)[nH]c(C#N)c1C)C(C#N)=C(N)O2 (stereo not drawn),inconclusive: -34.8%
10,COC(=O)c1cc(S(=O)(=O)NCc2cccs2)c[nH]1,inactive: -4.47%
11,COC(=O)Cc1c(C)c2ccc(OCC(=O)N3CCOCC3)cc2oc1=O,inconclusive: -35.6%
12,O=c1[nH]c(=S)[nH]nc1Cc1ccccc1,inconclusive: -44%
13,Cc1cc2c3c(c1)C(C)CC(C)(C)N3C(=O)C2=O (stereo not drawn),inconclusive: -40.1%
14,Cc1ccccc1-c1nc(C#N)c(N2CCC(C)CC2)o1,inactive: 8.17%
15,O=C1c2ccccc2C(=O)C12OC2c1ccc(Cl)cc1Cl (stereo not drawn),inconclusive: -34.3%
16,COc1cc(NC(=O)CSc2nnc(NC(C)C)s2)cc(OC)c1OC,inactive: 4.11%
17,CCOc1nc(NC(=O)NC(=O)c2ccccc2)nc(-c2ccccc2)n1,inconclusive: -36.9%
18,Cc1ccc(N=C2NC(=O)/C(=C/c3cn(C)c4ccccc34)S2)cc1C,inconclusive: -44.6%
19,Oc1ccc(COCc2ccccc2)c2cccnc12,inconclusive: -36.8%
20,CCn1cc(CNCc2cn(C)nc2-c2ccc(C3CCCCC3)cc2)cn1,inactive: 11.4%
21,NC(=S)NN=C1CCCCCCCCC1,inconclusive: -47.5%
22,Cc1ccc(NC(=O)c2ccc(Cl)c(S(=O)(=O)N3CCCCCC3)c2)nc1,inactive: 10.2%

row,Compound,"max response, negative = inhibition"
1,COc1ccccc1/C=N/Nc1nc(C)c(C(C)=O)s1,inconclusive: -35.6%
2,Cc1ccc(S(=O)(=O)N(C)c2ccc(C(=O)NCC(c3cccs3)N3CCOCC3)cc2)cc1 (stereo not drawn),inconclusive: -31.3%
3,O=C(c1cccc([N+](=O)[O-])c1)N1CCN(c2cccc(Cl)c2)CC1,inconclusive: -38.7%
4,O=C(O)CSc1c2c(nc3cc(C(=O)N4CCCC4)ccc13)CCCC2,inactive: 17.3%
5,O=C(O)c1cc2cc(Cl)cc(Cl)c2oc1=O,inconclusive: -36.7%
6,CC(=O)Nc1ccc(NC(=O)C(C)OC(=O)CNS(=O)(=O)/C=C/c2ccc(C)cc2)cc1 (stereo not drawn),active: -53.6%
7,N#Cc1cc(Oc2cccc3cccnc23)c(-n2nnc3ccccc32)cc1C#N,inconclusive: -35.4%
8,CN1CC(c2ccccc2)C2(SC(=S)N(Cc3ccco3)C2=O)C12C(=O)Nc1ccccc12 (stereo not drawn),inconclusive: -39%
9,CCCNC(=O)C1(C)CCCN(Cc2csc(-c3ccccc3)n2)C1 (stereo not drawn),active: -66.3%
10,COC(=O)CSc1nnc(CNS(=O)(=O)c2ccc(Br)cc2)n1C,inactive: -9.98%
11,c1coc(CNc2nc(N3CCCCC3)nc3ccccc23)c1,inconclusive: -37.4%
12,CCc1nnc(NC(=O)CN2CCN(Cc3cccc(Cl)c3)CC2)s1,active: -51.9%
13,Cc1ccc(-n2c(O)c(/C=N/n3cnnc3)c3ccccc3c2=O)cc1,active: -109%
14,C/C(NC(=O)c1ccccc1)=C1/C(=O)CC2C1C2(C)C (stereo not drawn),inconclusive: -39.7%
15,COc1cc(NC(=O)c2ccc(S(=O)(=O)N(C)c3ccccc3OC)cc2)cc(OC)c1,inactive: 13.7%
16,CC1(c2ccc3c(c2)OCO3)NC(=O)N(CC(=O)Nc2ccccc2[N+](=O)[O-])C1=O (stereo not drawn),inactive: -12.2%
17,Cc1nn2c(NCc3ccccn3)c3c(nc2c1-c1ccccc1)CCC3,inconclusive: -31.2%
18,O=C(COC(=O)c1ccc(Cl)c(S(=O)(=O)NCc2ccccc2)c1)NCC1CCCO1 (stereo not drawn),inactive: 35.3%
19,CN(C)S(=O)(=O)c1cccc(NC(=O)CN2C(=O)NC(Cc3c[nH]c4ccccc34)C2=O)c1 (stereo not drawn),inconclusive: -40.8%
20,COc1ccc(S(=O)(=O)N(CC(=O)NCc2ccccn2)c2ccc(Cl)cc2)cc1,inconclusive: -46.3%
21,CC(CN1CCCCC1)OC(=O)c1ccc2c(c1)OCCO2 (stereo not drawn),inconclusive: -47.9%
22,CNc1ccccc1C(=O)OCC(=O)c1ccccc1,inactive: -12.9%

# Grouped by structure, the compounds so far with fluorine
row,Compound,"max response, negative = inhibition"
12,CCOC(=O)C1=CCN(S(=O)(=O)c2cccc(Cl)c2)C1c1ccc(F)cc1 (stereo not drawn),inconclusive: -44.3%
21,O=C(CSc1nnc(NC(=O)c2c(F)cccc2F)s1)NCc1ccccc1,inconclusive: -31.6%

# A draw from above in order of molecular weight, high to low:
row,Compound,"max response, negative = inhibition"
8,CN1CC(c2ccccc2)C2(SC(=S)N(Cc3ccco3)C2=O)C12C(=O)Nc1ccccc12 (stereo not drawn),inconclusive: -39%
6,CC(=O)Nc1ccc(NC(=O)C(C)OC(=O)CNS(=O)(=O)/C=C/c2ccc(C)cc2)cc1 (stereo not drawn),active: -53.6%
4,O=C(O)CSc1c2c(nc3cc(C(=O)N4CCCC4)ccc13)CCCC2,inactive: 17.3%

# (cont.)

row,Compound,"max response, negative = inhibition"
1,C=CC[C@H](CC(=O)NCCO)C(=O)N[C@H](COC(=O)[C@@H](CC=C)Cc1ccc(F)cc1)Cc1ccccc1,inconclusive: -42.4%
2,CC(=Nc1cccc(O)c1)c1sc2ccccc2c1O,inactive: -23.5%
3,CC1CC(C)CN(S(=O)(=O)c2ccc(Oc3ccc([N+](=O)[O-])cc3)cc2)C1 (stereo not drawn),inconclusive: -36.6%
4,Cc1cc(NC(=O)c2noc3c2CCCC3)no1,inconclusive: -35.1%
5,CSc1ccc(C2CC(=O)Nc3c2c(=O)n(C)c(=O)n3C)cc1 (stereo not drawn),inactive: -3.86%
6,O=C1/C(=C/c2cccnc2)Sc2ccccc21,inactive: 10.7%
7,CCCCOC(=O)NC1CCc2cc(OC)c(OC)c(OC)c2-c2ccc(SC)c(=O)cc21 (stereo not drawn),inactive: -9.14%
8,Cc1ccccc1C(=O)OCC(=O)Nc1cccc(S(=O)(=O)NC2=NCCC2)c1,inactive: -5.4%
9,Clc1ccc2nc(-c3ccccn3)c(Nc3ccc4c(c3)OCO4)n2c1,active: -59.7%
10,CC(=O)OCCCNc1cc(Sc2ccc(Cl)cc2)c2nonc2c1[N+](=O)[O-],active: -118%
11,O=C1OC(Nc2ccc3c(c2)OCO3)c2ccccc21 (stereo not drawn),inconclusive: -34.3%
12,Cc1ccc(N=Nc2ccc(O)c3ncccc23)cc1,active: -118%
13,O=C(COC(=O)Cn1cnc2ccccc21)NCCc1ccccc1,inconclusive: -31.6%
14,CCOc1ccc2[nH]cc(C(=O)NCc3ccc(F)cc3)c(=O)c2c1,inconclusive: -37.2%
15,CC1(C)CC(=O)C2=C(C1)N=C1c3ccccc3C(=O)C1C2c1ccc(Cl)cc1 (stereo not drawn),inconclusive: -33.7%
16,CC(C)c1ccc(OCCCCN2CCCCC2)cc1,active: -88%
17,COc1ccc([C@@H]2[C@@H]3C(=O)N(C(C)(C)C)C(=O)[C@@H]3[C@]3(Cc4ccc(Cl)cc4)C(=O)N(c4cccc(F)c4)C(=O)N23)cc1,inconclusive: -33.3%
18,Cc1ccc(Oc2cc(NC(=O)CCCn3nc([N+](=O)[O-])cc3C)cc([N+](=O)[O-])c2)cc1,inconclusive: -40.1%
19,COC(=O)c1ccc(C)c(NC(=O)CCn2[nH]c(=O)ccc2=O)c1,inactive: 0.567%
20,COc1ccc(C2/C=C\CN(C(=O)OCc3ccccc3)CC(=O)N2Cc2ccc(F)cc2)cc1 (stereo not drawn),inconclusive: -40.7%
21,CS(=O)(=O)N1CCc2cc(S(=O)(=O)N3CCN(Cc4ccc5c(c4)OCO5)CC3)ccc21,inactive: 13.5%
22,CCOc1ccc(C(CC(=O)O)NC(=O)c2ccco2)cc1 (stereo not drawn),inconclusive: -33.8%
